According to the supplement of paper PMC10849652:
The other results are listed elsewhere or left out.

By UniProt entry, the sequences of proteins in these tests, tags left out. Where a name states a change or a piece, a line headed by the entry shows the natural chain unless it says otherwise.
UniProt Q8NEB9, whole entry, looked up: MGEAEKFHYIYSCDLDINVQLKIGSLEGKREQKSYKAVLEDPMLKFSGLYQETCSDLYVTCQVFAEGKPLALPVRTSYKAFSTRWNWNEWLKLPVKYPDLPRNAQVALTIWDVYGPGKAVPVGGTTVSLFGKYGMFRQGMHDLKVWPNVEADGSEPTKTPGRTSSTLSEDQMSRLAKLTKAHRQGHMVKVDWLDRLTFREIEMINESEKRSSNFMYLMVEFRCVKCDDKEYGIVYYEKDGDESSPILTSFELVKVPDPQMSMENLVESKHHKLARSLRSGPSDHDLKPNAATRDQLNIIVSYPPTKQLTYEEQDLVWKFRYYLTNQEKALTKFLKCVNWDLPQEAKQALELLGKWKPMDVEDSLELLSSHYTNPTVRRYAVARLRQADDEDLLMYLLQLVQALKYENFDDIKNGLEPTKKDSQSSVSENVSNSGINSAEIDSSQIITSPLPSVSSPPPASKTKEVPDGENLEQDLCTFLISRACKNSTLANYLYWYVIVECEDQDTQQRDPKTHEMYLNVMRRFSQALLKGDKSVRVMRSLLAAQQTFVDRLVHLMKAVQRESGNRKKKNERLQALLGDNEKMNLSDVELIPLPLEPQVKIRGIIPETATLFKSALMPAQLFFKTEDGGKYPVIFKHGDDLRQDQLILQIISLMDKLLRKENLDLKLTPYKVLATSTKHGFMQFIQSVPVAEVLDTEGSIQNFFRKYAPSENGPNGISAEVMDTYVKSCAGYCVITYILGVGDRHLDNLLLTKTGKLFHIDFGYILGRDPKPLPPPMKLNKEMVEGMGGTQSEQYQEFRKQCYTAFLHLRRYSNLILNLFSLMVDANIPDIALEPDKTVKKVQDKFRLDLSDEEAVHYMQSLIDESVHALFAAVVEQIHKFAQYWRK
UniProt Q00169: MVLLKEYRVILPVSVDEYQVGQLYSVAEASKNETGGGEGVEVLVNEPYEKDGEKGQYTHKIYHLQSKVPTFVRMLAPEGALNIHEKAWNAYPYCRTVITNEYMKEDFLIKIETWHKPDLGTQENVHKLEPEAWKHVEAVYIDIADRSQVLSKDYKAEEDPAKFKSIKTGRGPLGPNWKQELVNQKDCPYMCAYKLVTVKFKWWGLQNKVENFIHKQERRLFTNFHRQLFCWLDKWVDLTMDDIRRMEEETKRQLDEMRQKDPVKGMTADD
UniProt O75167: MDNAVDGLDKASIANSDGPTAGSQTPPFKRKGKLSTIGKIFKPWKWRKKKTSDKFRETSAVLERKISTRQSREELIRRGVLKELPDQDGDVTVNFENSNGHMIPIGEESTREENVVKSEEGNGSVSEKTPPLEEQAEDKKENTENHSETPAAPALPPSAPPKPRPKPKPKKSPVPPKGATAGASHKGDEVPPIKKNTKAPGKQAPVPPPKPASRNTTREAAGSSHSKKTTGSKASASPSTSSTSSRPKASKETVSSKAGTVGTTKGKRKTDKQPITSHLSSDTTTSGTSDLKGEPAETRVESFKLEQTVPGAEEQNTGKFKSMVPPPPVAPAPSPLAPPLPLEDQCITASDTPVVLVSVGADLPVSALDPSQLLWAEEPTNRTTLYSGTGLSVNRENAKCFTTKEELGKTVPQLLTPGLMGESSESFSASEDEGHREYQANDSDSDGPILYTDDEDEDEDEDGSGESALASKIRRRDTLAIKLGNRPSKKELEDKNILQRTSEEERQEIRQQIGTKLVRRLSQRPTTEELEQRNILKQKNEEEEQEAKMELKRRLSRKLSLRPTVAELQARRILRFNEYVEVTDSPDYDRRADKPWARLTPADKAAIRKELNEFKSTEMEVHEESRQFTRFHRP
UniProt P12273: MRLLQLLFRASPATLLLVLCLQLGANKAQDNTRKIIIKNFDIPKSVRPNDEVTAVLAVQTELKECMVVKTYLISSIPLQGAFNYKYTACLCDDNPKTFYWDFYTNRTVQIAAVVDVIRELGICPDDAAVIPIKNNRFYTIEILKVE
UniProt O60331: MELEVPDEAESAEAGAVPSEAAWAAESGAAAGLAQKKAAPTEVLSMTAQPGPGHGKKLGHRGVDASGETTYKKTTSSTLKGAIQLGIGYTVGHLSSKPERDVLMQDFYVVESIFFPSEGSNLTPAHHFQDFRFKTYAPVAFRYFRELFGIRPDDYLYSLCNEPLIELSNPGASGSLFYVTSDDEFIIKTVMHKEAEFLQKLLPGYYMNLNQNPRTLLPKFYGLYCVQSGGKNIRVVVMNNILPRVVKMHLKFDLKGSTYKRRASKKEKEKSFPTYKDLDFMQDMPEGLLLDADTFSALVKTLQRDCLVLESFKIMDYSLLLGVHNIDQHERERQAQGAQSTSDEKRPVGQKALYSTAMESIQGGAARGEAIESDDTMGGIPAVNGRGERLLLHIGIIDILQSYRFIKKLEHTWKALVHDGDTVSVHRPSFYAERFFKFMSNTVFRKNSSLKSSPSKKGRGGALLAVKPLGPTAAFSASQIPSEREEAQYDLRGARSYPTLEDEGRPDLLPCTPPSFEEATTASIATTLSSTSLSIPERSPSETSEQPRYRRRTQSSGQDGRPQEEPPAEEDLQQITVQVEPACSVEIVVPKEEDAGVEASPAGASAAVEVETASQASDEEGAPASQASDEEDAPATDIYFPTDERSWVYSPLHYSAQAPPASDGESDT
UniProt Q969N2: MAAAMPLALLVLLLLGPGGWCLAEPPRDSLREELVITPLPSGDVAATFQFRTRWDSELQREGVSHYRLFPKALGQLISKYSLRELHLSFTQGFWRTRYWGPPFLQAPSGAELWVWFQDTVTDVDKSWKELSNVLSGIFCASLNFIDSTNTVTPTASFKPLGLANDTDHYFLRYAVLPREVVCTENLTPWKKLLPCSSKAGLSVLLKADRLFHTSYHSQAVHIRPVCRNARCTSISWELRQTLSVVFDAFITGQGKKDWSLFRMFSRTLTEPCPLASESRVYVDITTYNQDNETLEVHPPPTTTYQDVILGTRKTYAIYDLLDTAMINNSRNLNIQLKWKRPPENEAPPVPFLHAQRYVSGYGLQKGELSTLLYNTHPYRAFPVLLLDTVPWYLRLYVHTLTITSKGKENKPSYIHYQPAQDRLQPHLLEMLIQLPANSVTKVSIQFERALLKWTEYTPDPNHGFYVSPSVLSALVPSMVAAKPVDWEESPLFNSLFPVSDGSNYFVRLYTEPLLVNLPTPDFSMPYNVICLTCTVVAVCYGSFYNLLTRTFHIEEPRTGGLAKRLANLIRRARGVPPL
UniProt P55347: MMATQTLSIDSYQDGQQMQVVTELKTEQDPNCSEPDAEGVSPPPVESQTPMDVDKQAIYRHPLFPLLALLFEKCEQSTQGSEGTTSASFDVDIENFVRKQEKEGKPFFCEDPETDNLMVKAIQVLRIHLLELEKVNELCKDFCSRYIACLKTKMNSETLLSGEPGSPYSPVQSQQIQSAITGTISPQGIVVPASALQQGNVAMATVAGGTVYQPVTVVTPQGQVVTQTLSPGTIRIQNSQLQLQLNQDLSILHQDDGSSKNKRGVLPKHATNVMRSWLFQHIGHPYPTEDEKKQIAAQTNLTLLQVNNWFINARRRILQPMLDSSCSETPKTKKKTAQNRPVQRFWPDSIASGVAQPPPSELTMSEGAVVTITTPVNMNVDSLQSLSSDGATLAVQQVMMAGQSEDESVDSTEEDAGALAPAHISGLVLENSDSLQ
UniProt Q6P4A8: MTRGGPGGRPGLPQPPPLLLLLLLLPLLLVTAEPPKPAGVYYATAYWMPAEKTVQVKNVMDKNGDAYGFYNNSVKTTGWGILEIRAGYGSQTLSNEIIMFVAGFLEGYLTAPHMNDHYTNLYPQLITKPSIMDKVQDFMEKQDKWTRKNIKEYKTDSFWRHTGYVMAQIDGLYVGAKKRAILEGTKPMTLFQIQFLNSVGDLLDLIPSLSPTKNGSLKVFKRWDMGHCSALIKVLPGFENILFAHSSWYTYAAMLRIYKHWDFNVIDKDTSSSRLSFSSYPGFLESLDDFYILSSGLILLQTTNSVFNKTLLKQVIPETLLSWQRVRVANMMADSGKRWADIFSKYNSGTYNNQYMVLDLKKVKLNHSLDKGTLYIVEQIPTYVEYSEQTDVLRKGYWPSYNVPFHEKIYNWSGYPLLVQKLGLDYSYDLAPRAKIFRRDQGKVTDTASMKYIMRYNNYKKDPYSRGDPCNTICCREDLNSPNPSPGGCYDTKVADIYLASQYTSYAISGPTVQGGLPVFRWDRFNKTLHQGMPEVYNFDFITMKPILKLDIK
UniProt Q8IWS0: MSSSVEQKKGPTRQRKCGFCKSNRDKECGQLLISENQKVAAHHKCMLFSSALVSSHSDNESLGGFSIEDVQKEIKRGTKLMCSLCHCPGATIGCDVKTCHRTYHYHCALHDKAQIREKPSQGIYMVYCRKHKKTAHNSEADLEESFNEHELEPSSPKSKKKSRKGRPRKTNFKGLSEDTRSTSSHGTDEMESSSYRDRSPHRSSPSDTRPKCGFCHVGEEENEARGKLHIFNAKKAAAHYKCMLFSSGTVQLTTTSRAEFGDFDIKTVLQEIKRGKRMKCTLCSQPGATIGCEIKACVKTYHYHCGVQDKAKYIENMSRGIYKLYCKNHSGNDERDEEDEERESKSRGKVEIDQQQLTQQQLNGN
UniProt Q9H814, whole entry, looked up: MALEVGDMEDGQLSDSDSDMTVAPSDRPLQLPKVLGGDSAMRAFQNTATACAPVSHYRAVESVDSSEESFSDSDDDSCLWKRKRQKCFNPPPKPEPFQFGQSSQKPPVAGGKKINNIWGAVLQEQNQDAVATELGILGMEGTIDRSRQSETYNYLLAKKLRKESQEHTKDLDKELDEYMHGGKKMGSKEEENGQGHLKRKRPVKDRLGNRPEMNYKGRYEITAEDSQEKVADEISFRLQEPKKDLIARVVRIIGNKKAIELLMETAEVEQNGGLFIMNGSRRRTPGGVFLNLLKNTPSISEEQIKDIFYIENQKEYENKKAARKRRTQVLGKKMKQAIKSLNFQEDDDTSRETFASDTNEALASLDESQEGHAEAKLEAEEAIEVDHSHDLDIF
UniProt Q96S52: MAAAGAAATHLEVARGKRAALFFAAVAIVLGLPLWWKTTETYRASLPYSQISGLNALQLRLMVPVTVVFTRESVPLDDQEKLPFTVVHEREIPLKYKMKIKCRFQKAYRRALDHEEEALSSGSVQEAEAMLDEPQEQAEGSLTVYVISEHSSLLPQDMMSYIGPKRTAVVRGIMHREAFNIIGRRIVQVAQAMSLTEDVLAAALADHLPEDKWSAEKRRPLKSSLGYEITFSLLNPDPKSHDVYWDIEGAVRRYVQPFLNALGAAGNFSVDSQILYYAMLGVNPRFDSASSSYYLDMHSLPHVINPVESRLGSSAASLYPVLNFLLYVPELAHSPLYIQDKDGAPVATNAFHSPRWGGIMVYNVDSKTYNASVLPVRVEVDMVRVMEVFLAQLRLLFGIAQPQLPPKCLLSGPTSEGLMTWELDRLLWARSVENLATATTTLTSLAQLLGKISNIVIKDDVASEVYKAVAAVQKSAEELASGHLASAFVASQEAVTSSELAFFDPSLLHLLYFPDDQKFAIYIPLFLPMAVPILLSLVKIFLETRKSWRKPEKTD
UniProt Q9NXJ5: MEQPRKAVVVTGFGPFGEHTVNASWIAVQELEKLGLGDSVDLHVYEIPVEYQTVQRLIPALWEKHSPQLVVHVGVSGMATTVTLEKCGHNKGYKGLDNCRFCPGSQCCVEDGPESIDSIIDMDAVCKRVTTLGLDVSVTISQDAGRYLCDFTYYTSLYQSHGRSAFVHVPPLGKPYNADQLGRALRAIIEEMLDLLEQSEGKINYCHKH

Columns and labels:
Assay in all cases: log2 fold change, soluble protein after heating vs DMSO (PISA); higher = thermal stabilisation; K562 lysate, 10 uM; active = over 0.2 and 3.5 SD of the protein, either way, in both replicates (recomputed)
nilotinib = compound: Cc1cn(-c2cc(NC(=O)c3ccc(C)c(Nc4nccc(-c5cccnc5)n4)c3)cc(C(F)(F)F)c2)cn1 [nilotinib]
In short: (§1)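 Soluble protein was defined as the supernatant remaining after 21,000xg for 90 min, following pooling of heated aliquots and adjustment to 0.5% NP-40 at 4°C. Before that, crude K562 extract at 1 mg/mL protein in PBS pH 7.4 with 1 mM MgCl2 was treated with 10 μM compound for 30 min and heated for 3 min across 48°C-58°C. Quantification used TMTpro 16plex LC-MS/MS with channel sums equalised, and values are log-two fold changes in thermal stability relative to solvent controls from duplicates.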

[1] = compound: Cc1nc(Nc2n[nH]c3c2CN(C(=O)N[C@H](CN(C)C)c2ccccc2)C3(C)C)c2sccc2n1
In short: as §1

dasatinib = compound: Cc1nc(Nc2ncc(C(=O)Nc3c(C)cccc3Cl)s2)cc(N2CCN(CCO)CC2)n1 [dasatinib]
In short: as §1

[2] = compound: Cc1ncc(-c2ccnc(Nc3ccc(S(C)(=O)=O)cc3)n2)n1C(C)C
In short: as §1

[3] = compound: Cn1cc(-c2ccc3c(c2)CCN3C(=O)Cc2cccc(C(F)(F)F)c2)c2c(N)ncnc21
In short: as §1

quisinostat = compound: Cn1cc(CNCC2CCN(c3ncc(C(=O)NO)cn3)CC2)c2ccccc21 [quisinostat]
In short: as §1

tipifarnib = compound: Cn1cncc1[C@@](N)(c1ccc(Cl)cc1)c1ccc2c(c1)c(-c1cccc(Cl)c1)cc(=O)n2C [tipifarnib]
In short: as §1

[4] = compound: NC(=O)Nc1cc(-c2cccc(F)c2)sc1C(=O)N[C@H]1CCCNC1
In short: as §1

[5] = compound: NC(=O)c1cnc(N[C@@H]2CCCC[C@@H]2N)nc1Nc1cccc(-n2nccn2)c1
In short: as §1

[6] = compound: NC1(c2ccc(-c3nc4ccn5c(=O)[nH]nc5c4cc3-c3ccccc3)cc2)CCC1
In short: as §1

vorinostat = compound: O=C(CCCCCCC(=O)Nc1ccccc1)NO [vorinostat]
In short: as §1

silmitasertib = compound: O=C(O)c1ccc2c(c1)nc(Nc1cccc(Cl)c1)c1ccncc12 [silmitasertib]
In short: as §1

[7] = compound: O=C1NC(=O)C(c2cnc3ccccn23)=C1c1cn2c3c(cc(F)cc13)CN(C(=O)N1CCCCC1)CC2
In short: as §1

entospletinib = compound: c1cn2cc(-c3ccc4cn[nH]c4c3)nc(Nc3ccc(N4CCOCC4)cc3)c2n1 [entospletinib]
In short: as §1

[8] = compound: NCC(=O)Nc1ccc(-n2nc(C(F)(F)F)cc2-c2ccc3c(ccc4ccccc43)c2)cc1
In short: as §1

Target	log2 fold change (nilotinib)	log2 fold change [1]	log2 fold change (dasatinib)	log2 fold change [2]	log2 fold change [3]	log2 fold change (quisinostat)	log2 fold change (tipifarnib)	log2 fold change [4]	log2 fold change [5]	log2 fold change [6]	log2 fold change (vorinostat)	log2 fold change (silmitasertib)	log2 fold change [7]	log2 fold change (entospletinib)	log2 fold change [8]
PIK3C2A (UniProt O00443)	inactive: 0.091	inactive: -0.029	inactive: 0.004	inactive: -0.065	inactive: 0.022	inactive: -0.056	inactive: -0.103	inactive: 0.077	inactive: 0.006	inactive: -0.028	inactive: 0.046	inactive: -0.085	inactive: 0.031	inactive: 0.055	
PHF3 (UniProt Q92576)	inactive: -0.052	inactive: 0.012	inactive: -0.014	inactive: 0.022	inactive: 0.002	inactive: -0.13	inactive: -0.03	inactive: 0.023	inactive: 0.004	inactive: 0.023	inactive: 0.015	inactive: -0.01	inactive: 0.012	inactive: -0.041	inactive: 0.027
PIK3C3 (UniProt Q8NEB9)	inactive: -0.001	inactive: -0.011	inactive: -0.05	inactive: 0.062	inactive: -0.025	inactive: -0.022	inactive: -0.054	inactive: 0.027	inactive: 0.04	inactive: -0.008	inactive: -0.066	inactive: 0.037	inactive: 0.019	inactive: -0.014	inactive: -0.04
PLD1 (UniProt Q13393)	inactive: 0.018	inactive: 0.02	inactive: 0.014	inactive: -0.004	inactive: 0.007	inactive: -0.006	inactive: -0.057	inactive: 0.015	inactive: 0.038	inactive: -0.033	inactive: -0.005	inactive: 0.021	inactive: 0.035	inactive: -0.04	inactive: -0.013
PITPNA (UniProt Q00169)	inactive: 0.006	inactive: 0.01	inactive: 0.033	inactive: -0.018	inactive: 0.022	inactive: -0.007	inactive: 0.022	inactive: 0.003	inactive: -0.009	inactive: 0.004	inactive: 0.115	inactive: 0.018	inactive: 0.015	inactive: 0.003	inactive: -0.024
PHACTR2 isoform 4 (UniProt O75167)	inactive: 0.032	inactive: -0.027	inactive: 0.044	inactive: 0.068	inactive: -0.014	inactive: -0.072	inactive: -0.01	inactive: -0.004	inactive: -0.067	inactive: -0.063	inactive: 0.018	inactive: 0.083	inactive: -0.035	inactive: -0.227	
PIP (UniProt P12273)	inactive: 0.315	inactive: -0.105	inactive: 0.117	inactive: 0.079	inactive: 0.444	inactive: 0.017	inactive: -0.299	inactive: -0.251	inactive: 0.398	inactive: 0.19	inactive: 0.243	inactive: -0.483	inactive: 0.348	inactive: -0.238	inactive: -0.067
PIP5K1C isoform 3 (UniProt O60331)	inactive: -0.254	inactive: 0.052	inactive: 0.058	inactive: -0.088	inactive: -0.011	inactive: -0.126	inactive: 0.015	inactive: 0.024	inactive: 0.002	inactive: -0.04	inactive: -0.1	inactive: 0.087	inactive: 0.086	inactive: 0.27	
PIGT (UniProt Q969N2)	inactive: 0.003	inactive: -0.026	inactive: -0.079	inactive: -0.03	inactive: 0.014	inactive: -0.002	inactive: -0.031	inactive: 0.021	inactive: 0.055	inactive: -0.039	inactive: 0.135	inactive: 0.044	inactive: -0.044	inactive: 0.008	inactive: -0.013
PIGG (UniProt Q5H8A4)	inactive: -0.01	inactive: -0.004	inactive: 0.014	inactive: 0.006	inactive: -0.017	inactive: -0.061	inactive: -0.018	inactive: 0.033	inactive: 0.049	inactive: 0	inactive: 0.095	inactive: -0.017	inactive: -0.115	inactive: 0.032	inactive: 0.167
PKNOX1 (UniProt P55347)	inactive: 0.102	inactive: -0.079	inactive: 0.046	inactive: -0.123	inactive: 0.014	inactive: -0.108	inactive: -0.113	inactive: 0.007	inactive: 0.016	inactive: 0.049	inactive: -0.148	inactive: -0.013	inactive: 0.031	inactive: -0.139	inactive: 0.043
PLBD1 (UniProt Q6P4A8)	inactive: -0.042	inactive: 0	inactive: 0.041	inactive: -0.069	inactive: -0.015	inactive: -0.043	inactive: -0.058	inactive: 0.019	inactive: -0.029	inactive: 0.004	inactive: 0.123	inactive: -0.062	inactive: -0.035	inactive: -0.08	inactive: -0.027
PHF6 (UniProt Q8IWS0)	inactive: 0.022	inactive: 0.031	inactive: 0	inactive: 0.003	inactive: 0.024	inactive: 0.101	inactive: -0.046	inactive: -0.016	inactive: 0.014	inactive: 0.053	inactive: 0.013	inactive: -0.004	inactive: 0.166	inactive: 0.031	inactive: -0.021
PHAX (UniProt Q9H814)	inactive: 0.003	inactive: -0.022	inactive: 0.015	inactive: -0.065	inactive: -0.031	inactive: -0.017	inactive: 0.008	inactive: -0.016	inactive: 0.026	inactive: 0.036	inactive: 0.085	inactive: -0.008	inactive: -0.053	inactive: 0.014	inactive: -0.005
PIGS (UniProt Q96S52)	inactive: -0.002	inactive: -0.03	inactive: -0.01	inactive: 0.002	inactive: -0.014	inactive: 0.019	inactive: -0.038	inactive: 0.01	inactive: 0.007	inactive: -0.007	inactive: 0.175	inactive: 0.02	inactive: 0.027	inactive: -0.025	inactive: 0.002
PGPEP1 (UniProt Q9NXJ5)	inactive: 0.018	inactive: 0.019	inactive: -0.067	inactive: 0.07	inactive: 0.011	inactive: 0.041	inactive: -0.006	inactive: -0.033	inactive: -0.03	inactive: 0.033	active: -0.526	inactive: 0.009	inactive: 0.012	inactive: -0.049	inactive: 0
PITRM1 isoform 2 (UniProt Q5JRX3)	inactive: 0.014	inactive: -0.035	inactive: 0.011	inactive: -0.021	inactive: -0.002	inactive: 0.021	inactive: 0.013	inactive: 0.005	inactive: 0	inactive: -0.008	inactive: 0.111	inactive: 0.006	inactive: -0.011	inactive: 0.002	inactive: 0.003

Record cards (already shown). Values in the order: log2 fold change (nilotinib) | log2 fold change [1] | log2 fold change (dasatinib) | log2 fold change [2] | log2 fold change [3] | log2 fold change (quisinostat) | log2 fold change (tipifarnib) | log2 fold change [4] | log2 fold change [5] | log2 fold change [6] | log2 fold change (vorinostat) | log2 fold change (silmitasertib) | log2 fold change [7] | log2 fold change (entospletinib) | log2 fold change [8]
PIP (UniProt P12273) in the list: inactive: 0.315 | inactive: -0.105 | inactive: 0.117 | inactive: 0.079 | inactive: 0.444 | inactive: 0.017 | inactive: -0.299 | inactive: -0.251 | inactive: 0.398 | inactive: 0.19 | inactive: 0.243 | inactive: -0.483 | inactive: 0.348 | inactive: -0.238 | inactive: -0.067
PLD1 (UniProt Q13393) in the list: inactive: 0.018 | inactive: 0.02 | inactive: 0.014 | inactive: -0.004 | inactive: 0.007 | inactive: -0.006 | inactive: -0.057 | inactive: 0.015 | inactive: 0.038 | inactive: -0.033 | inactive: -0.005 | inactive: 0.021 | inactive: 0.035 | inactive: -0.04 | inactive: -0.013
